# Laboratory results reported in paper PMC2672601.
# These are yes or no findings as the source states them, for the method shown. In cells and extracts the contact can be indirect. Binding can be weak; no strength is given. Tags and fused reporters may be left off the sequences shown.
# Target: T1, VGluRδ2 (fusion between Venus and the glutamate receptor delta2, GluRδ2) (UniProt Q61625)
# T1 sequence: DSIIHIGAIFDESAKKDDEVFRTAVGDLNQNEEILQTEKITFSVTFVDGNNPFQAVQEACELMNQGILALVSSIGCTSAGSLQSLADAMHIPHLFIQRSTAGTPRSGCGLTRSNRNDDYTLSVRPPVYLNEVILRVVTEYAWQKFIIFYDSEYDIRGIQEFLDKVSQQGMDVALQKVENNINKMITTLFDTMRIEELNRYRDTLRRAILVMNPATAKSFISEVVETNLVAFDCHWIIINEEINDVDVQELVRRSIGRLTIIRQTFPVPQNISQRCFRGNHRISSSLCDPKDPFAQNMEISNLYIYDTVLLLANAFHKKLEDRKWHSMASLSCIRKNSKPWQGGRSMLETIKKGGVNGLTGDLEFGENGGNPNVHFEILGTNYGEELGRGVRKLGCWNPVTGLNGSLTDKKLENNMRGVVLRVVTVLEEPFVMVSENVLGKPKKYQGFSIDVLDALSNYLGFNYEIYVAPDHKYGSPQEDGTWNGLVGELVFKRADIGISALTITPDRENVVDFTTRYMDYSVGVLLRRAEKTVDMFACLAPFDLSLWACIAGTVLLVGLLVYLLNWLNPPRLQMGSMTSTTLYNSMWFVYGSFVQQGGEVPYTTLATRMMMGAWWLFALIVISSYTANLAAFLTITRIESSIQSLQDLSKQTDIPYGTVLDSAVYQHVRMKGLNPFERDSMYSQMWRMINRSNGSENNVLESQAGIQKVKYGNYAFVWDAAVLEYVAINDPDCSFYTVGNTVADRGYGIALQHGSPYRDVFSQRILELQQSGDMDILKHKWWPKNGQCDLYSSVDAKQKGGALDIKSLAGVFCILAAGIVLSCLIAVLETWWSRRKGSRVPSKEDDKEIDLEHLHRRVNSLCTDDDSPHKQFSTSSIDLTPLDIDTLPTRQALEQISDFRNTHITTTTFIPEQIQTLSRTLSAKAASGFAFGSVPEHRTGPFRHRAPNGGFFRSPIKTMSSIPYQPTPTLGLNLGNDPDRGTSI
# Assay: co-IP; anti-GFP antibody on Dynabeads M-270 epoxy beads; pooled excitatory synaptic gel-filtration fractions of a crude synaptosome fraction (P2) solubilised in 0.5% Triton X-100, from ten cerebella of Pcp2/VGluRδ2 or Pcp2/eGFP mice; 1 h at 4 °C; wash with 300 mM NaCl, 0.5% Triton X-100; western blot of the affinity-purified samples
substance,measurement,value
Homer (mouse (endogenous in cerebellum)),binding,binds
